Data reported in paper PMC7886694.
The exact form of at least one protein or probe is not confirmed. For some assays here: The comparison behind a weaker result is the experiment's own reference, which may not be listed here. Where a protein sequence is shown, tags need not be part of it.

Tests used:
[1] = target: T1, His-GlnR (Mycobacterium smegmatis) (UniProt A0R4C4); experiment: EMSA; settings: EMSA: 2 ng biotin probe in 10 uL, Beyotime chemiluminescent kit, buffer not stated, recombinant protein, protein details: His, label: 5' biotin, probe letters rebuilt from the primers and the genome
T1 sequence (looked up, limits assumed): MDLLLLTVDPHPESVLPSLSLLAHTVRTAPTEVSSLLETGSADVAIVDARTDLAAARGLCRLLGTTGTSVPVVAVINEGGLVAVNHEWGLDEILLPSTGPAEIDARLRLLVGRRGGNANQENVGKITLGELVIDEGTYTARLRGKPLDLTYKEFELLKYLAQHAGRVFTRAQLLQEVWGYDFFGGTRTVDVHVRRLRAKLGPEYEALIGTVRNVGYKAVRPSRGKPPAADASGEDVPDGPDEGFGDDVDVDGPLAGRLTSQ

[2] = target: T1, His-GlnR (Mycobacterium smegmatis); experiment: BLI; settings: 37 C, 200 mM KCl, 2 mM Mg2+, BLI: 10 mM HEPES pH 8.0, 2 mM MgCl2, 0.1 mM EDTA, 10 ug/ml BSA, 0.02% Tween-20 (running buffer), recombinant protein, protein details: His, label: 5' biotin, probe letters rebuilt from the primers and the genome
His-PrpR [3] = target: T2, His-PrpR (UniProt A0R6R5); experiment: BLI; settings: 37 C, 200 mM KCl, 2 mM Mg2+, BLI: 10 mM HEPES pH 8.0, 2 mM MgCl2, 0.1 mM EDTA, 10 ug/ml BSA, 0.02% Tween-20 (running buffer), recombinant protein, protein details: His, label: 5' biotin, probe letters rebuilt from the primers and the genome
T2 sequence (looked up, limits assumed): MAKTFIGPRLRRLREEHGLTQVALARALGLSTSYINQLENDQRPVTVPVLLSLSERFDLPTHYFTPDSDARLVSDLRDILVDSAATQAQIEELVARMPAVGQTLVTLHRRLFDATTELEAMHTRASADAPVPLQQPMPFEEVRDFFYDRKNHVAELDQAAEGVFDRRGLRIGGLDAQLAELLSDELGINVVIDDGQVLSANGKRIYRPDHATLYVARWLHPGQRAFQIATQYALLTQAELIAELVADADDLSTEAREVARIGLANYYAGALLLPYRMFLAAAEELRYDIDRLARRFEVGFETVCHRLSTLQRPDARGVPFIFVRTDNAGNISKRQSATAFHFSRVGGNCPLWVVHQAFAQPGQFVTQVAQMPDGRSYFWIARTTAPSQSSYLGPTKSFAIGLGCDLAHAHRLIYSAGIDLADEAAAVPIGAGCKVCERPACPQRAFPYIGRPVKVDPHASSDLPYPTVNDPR

His-PrpR [4] = target: T2, His-PrpR; experiment: EMSA; settings: 0.5-1.5 uM PrpR, displaced by 0.05-0.5 uM GlnR; EMSA: 2 ng biotin probe in 10 uL, Beyotime chemiluminescent kit, buffer not stated; recombinant protein; protein details: His; label: 5' biotin; probe letters rebuilt from the primers and the genome

ATATGCGGTCGGCGAGGAGACGAAAGCCGTCGCCTGTCTCTTCTCGCTCTGAATCAATCACGTTTAACAGTACGGGCGTACTGACCTGCGAAAAGTGGCTACTCGCCGGTAGCTTCTGAACCGGTACAGCCATCATATTTCTTCACAATCTTCGCAAGTTAACGCACACGTTTCGCCAAAACCTGGCAAAGGAAACGGGTGGACCTGCGGTTATGTCATGTGCCATCGTCGGGTTAGCACACCAGTGAAGCTGCTGCGGTGTTAACAACCGCAGTGACTTAACAACCGAAGGAGCCGTCCAATGTCGACCGTTGGCACCCCGAAGTCCCCCGAGCAGATCCAGCACGACTGGGATCACAAC (double strand) [Picl a-site mutant]
binding result ([1]; 0.5 uM GlnR): binds more weakly

ATATGCGGTCGGCGAGGAGACGAAAGCCGTCGCCTGTCTCTTCTCGCTCTGAATCAATCACGTTTAACAGTACGGGCGTACTGACCTGCGAAAAGTGGCTACTCGCCGGTAGCTTCTGAACCGGTACAGCCATCATATTTCTTCACAATCTTCGCAAGTTAACGCACACGTTTCGCCAAAATTGGCAAAGGAAACGGGTGGACCTGCGGTTATGTCATGTGCCATCGTCGGGTTAGCACACCAGTGAAGCTGCTGCGGTGTTAACAACCGCAGTGACTTAACAACCGAAGGAGCCGTCCAATGTCGACCGTTGGCACCCCGAAGTCCCCCGAGCAGATCCAGCACGACTGGGATCACAAC (double strand) [Picl (Msm icl promoter)]
Kd [2]: 0.0337 µM | Kd (His-PrpR [3]): 0.171 µM | binding result ([1]; 0.25-1.0 uM GlnR): binds | binding result (His-PrpR [4]): binds
